Measurements as given in paper PMC3554521.
Results are given in words; binding and its absence hold for the method and conditions named. Some binding calls cover weakened binding; strength is not graded here.

Protein sequences, listed by entry. Tags and fused reporters are not part of them. Lines headed by an entry give the natural chain unless they say otherwise; changes in a name come on top.
UniProt P10629: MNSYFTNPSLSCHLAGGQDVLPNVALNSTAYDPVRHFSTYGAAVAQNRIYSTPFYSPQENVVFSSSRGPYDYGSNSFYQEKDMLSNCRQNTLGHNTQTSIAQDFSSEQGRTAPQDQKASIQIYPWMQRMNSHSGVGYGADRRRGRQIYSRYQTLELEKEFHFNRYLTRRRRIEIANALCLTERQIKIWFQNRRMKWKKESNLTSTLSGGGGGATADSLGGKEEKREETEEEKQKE

Biological target: T1, Pbx3 (UniProt O35317)
T1 sequence: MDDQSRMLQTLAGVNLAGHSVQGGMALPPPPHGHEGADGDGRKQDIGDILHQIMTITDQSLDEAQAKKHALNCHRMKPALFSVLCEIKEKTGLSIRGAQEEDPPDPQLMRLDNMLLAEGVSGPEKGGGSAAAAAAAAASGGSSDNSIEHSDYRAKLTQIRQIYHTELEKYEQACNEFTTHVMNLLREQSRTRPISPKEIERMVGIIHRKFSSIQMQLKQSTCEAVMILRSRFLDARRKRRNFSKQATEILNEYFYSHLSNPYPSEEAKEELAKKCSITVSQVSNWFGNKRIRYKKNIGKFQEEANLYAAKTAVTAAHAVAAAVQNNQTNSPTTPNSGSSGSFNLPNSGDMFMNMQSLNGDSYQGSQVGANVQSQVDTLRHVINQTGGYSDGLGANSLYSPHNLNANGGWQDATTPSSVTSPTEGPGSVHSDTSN
Experiment: native gel or EMSA; gel mobility shift: recombinant Hoxc6 derivatives and Pbx3 together on IRDye-800 labelled DNA probes (Foxp1/hs1149 site, Fkh250con*); cooperative binding on DNA; 50 mM Tris-HCl pH 7.5, 250 mM NaCl, 5 mM MgCl2, 20% glycerol, 2.5 mM DTT, 2.5 mM EDTA, poly dIdC, 0.1% BSA, 20 min at room temperature; 0.5-2 pmol protein per reaction; both purified

binding, binds:
Hoxc6NΔ111 (from UniProt P10629 112-235) (domain or fragment), Hoxc6 (from UniProt P10629 1-235), Hoxc6NΔ91 (from UniProt P10629 92-235) (domain or fragment)
